Results deposited as PubChem BioAssay AID602196 (INSERM, 2012).
In all, the deposit lists about 23,000 reagents; below is a part drawn at random. 455 of them (2%) were called active. 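Active includes both protection and sensitisation; some change values fall well beyond the stated -50 to +50 range.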 No sequences are given here. Not stated in the record: the amount of reagent.

Test: 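Modifiers of cisplatin sensitivity in A549 cells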
Cell system: human A549 lung cancer cells
Knock-down reagent: siRNA pair against human genes
Time to read-out: 48 h transfection before cisplatin; time from cisplatin to read-out not stated
Conditions: cisplatin at a dose killing half of control-siRNA cells; exact dose and duration not given
Measurement: 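Cisplatin cell death as a shift from the 50% death seen with control siRNA; siRNAs toxic or growth-blocking alone scored 0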
Direction: two-siRNA summed score (-2 to +2): higher = both siRNAs protect from cisplatin killing; -2 means both sensitise; mean protection from cisplatin (shift in death) and protection from cisplatin (shift in death), siRNA C and protection from cisplatin (shift in death), siRNA D: higher = protection from cisplatin killing
Rule for the call: 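siRNAs harmful alone (LDH or WST-1) get 0; others get +1 for less and -1 for more cisplatin killing; genes are active when the two siRNAs give the same sign, summing to ±2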
Meaning of the calls: active = both siRNAs shift cisplatin killing the same way; inactive = no consistent shift, or siRNA harmful alone

no.	target	two-siRNA summed score (-2 to +2)	mean protection from cisplatin (shift in death) (%)	protection from cisplatin (shift in death), siRNA C (%)	protection from cisplatin (shift in death), siRNA D (%)	Outcome
1	WDR5	0	-18.2	-10.5	-25.8	inactive
2	ZNF443	1	15.6	11.9	19.3	inactive
3	FGF11	-1	-8.6	-13.3	-3.9	inactive
4	TTC9C	0	10.7	9.7	11.8	inactive
5	BSND	0	1	5.8	-3.7	inactive
6	PHOSPHO1	-1	-13.6	-15.4	-11.7	inactive
7	NAA25	0	-4.9	-17.6	7.9	inactive
8	LOC387845	1	10.1	9.2	10.9	inactive
9	EFNA4	1	8.6	-2.8	20	inactive
10	CRBN	0	2.7	5.3	0.1	inactive
11	EZHIP	1	0.1	17.3	-17	inactive
12	WIF1	0	0	-4.4	4.3	inactive
13	ANKRD62	1	9.8	2.6	17	inactive
14	ZC3H18	0	2.4	8.7	-3.9	inactive
15	ZNF141	0	1	-3.9	6	inactive
16	VPS28	1	7.4	-3.7	18.5	inactive
17	DPYSL5	1	13.8	11.7	16	inactive
18	ZDHHC21	0	7.4	6.2	8.6	inactive
19	FHL1	0	-5.7	-14	2.6	inactive
20	OTC	1	8.2	0.5	15.8	inactive
21	LOC402251	0	4.9	6.5	3.4	inactive
22	LOC441777	1	11.5	4.8	18.3	inactive
23	LOC388365	0	-4.5	-14.2	5.1	inactive
